Results are given in words; binding and its absence hold for the method and conditions named. Some binding calls cover weakened binding; strength is not graded here.
Molecular target: human TMEFF1 extracellular domain recombinant protein (plasmid BBP377, S40-V330, C-terminal 8xHis) (human) (UniProt Q8IYR6)
Assay: BLI (Octet Red), His-tagged TMEFF1 ECD and deletion mutants on anti-Penta-His biosensors, unpurified recombinant antibody

Amino acid sequences for entries named in this document (tags omitted). A change or cut given only in a name is not applied to a line headed by its entry.
UniProt Q8IYR6: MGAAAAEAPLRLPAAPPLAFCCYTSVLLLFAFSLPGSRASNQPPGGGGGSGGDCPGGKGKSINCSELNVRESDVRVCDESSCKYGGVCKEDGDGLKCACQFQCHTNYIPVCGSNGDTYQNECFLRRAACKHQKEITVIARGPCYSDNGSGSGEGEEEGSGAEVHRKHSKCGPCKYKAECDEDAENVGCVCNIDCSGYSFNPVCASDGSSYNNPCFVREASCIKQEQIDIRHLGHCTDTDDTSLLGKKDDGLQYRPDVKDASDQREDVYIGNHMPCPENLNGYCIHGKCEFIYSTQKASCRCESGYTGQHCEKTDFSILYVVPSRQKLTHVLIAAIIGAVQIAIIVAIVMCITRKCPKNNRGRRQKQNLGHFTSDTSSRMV

- binding: binds
B1: M35hA10 (antibody, human IgG1, V domains shown)
VH: QVQLQESGPGLVKPSGTLSLTCAVSGGSISSSNWWSWVRQPPGKGLEWIGEIYHSGSTNYNPSLKSRVTISVDKSKNQFSLKLSSVTAADTAVYYCATMVRGRYYYYGMDVWGQGTTVTVSS
VL: DIVMTQSPLSLPVTPGEPASISCRSSQSLLHSDGYNFLDWYLQKPGQSPQFLIYLGSNRASGVPDRFSGVGSGTDFTLQISRVEAEDFGVYYCMQALQAPWTFGQGTKLEIK

From patent US20200109194A1
